These are yes or no findings as the source states them, for the method shown. Binding seen in cells or lysates may run through a third protein. Some binding calls cover weakened binding; strength is not graded here. Where a sequence is shown, tags or fusion partners need not be part of it.
Key:
[1] = biological target: RbBP5 (human) (UniProt Q15291); test: anti-myc pulldown, HEK293 lysate after overexpression of domains
[2] = biological target: Mixed Lineage Leukemia 1 (MLL1) (human) (UniProt Q03164); test: as above
[3] = biological target: ASH2L (human) (UniProt Q9UBL3); test: as above
[4] = biological target: RbBP5 (human) (UniProt Q15291); test: anti-myc pulldown of isolated domains in heterologous cells
[5] = biological target: Mixed Lineage Leukemia 1 (MLL1) (human) (UniProt Q03164); test: as above
[6] = biological target: ASH2L (human) (UniProt Q9UBL3); test: as above
[7] = biological target: RbBP5 (human) (UniProt Q15291); test: GST pulldown with purified CAPERα domains and T47D nuclear lysate
[8] = biological target: Mixed Lineage Leukemia 1 (MLL1) (human) (UniProt Q03164); test: as above
[9] = biological target: ASH2L (human) (UniProt Q9UBL3); test: as above
[10] = biological target: RbBP5 (human) (UniProt Q15291); test: GST pulldown with purified domains and T47D lysate
[11] = biological target: Mixed Lineage Leukemia 1 (MLL1) (human) (UniProt Q03164); test: GST pulldown with purified domains and T47D lysate
[12] = biological target: ASH2L (human) (UniProt Q9UBL3); test: GST pulldown with purified domains and T47D lysate

Amino acid sequences for entries named in this document (tags omitted).
UniProt Q15291: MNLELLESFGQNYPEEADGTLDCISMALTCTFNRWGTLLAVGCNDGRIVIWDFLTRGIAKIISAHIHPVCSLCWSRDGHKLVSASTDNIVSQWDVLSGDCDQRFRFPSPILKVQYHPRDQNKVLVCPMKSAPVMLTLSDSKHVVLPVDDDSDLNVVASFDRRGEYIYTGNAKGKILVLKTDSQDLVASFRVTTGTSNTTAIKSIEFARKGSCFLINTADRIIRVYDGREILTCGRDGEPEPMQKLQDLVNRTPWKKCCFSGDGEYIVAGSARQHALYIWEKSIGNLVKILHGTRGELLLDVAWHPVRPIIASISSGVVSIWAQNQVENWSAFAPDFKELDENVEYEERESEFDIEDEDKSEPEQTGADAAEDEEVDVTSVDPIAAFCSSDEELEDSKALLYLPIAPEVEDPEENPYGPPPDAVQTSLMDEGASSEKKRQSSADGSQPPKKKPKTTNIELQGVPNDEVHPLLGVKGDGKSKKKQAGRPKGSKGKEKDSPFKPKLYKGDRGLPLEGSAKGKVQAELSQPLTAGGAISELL
UniProt Q03164: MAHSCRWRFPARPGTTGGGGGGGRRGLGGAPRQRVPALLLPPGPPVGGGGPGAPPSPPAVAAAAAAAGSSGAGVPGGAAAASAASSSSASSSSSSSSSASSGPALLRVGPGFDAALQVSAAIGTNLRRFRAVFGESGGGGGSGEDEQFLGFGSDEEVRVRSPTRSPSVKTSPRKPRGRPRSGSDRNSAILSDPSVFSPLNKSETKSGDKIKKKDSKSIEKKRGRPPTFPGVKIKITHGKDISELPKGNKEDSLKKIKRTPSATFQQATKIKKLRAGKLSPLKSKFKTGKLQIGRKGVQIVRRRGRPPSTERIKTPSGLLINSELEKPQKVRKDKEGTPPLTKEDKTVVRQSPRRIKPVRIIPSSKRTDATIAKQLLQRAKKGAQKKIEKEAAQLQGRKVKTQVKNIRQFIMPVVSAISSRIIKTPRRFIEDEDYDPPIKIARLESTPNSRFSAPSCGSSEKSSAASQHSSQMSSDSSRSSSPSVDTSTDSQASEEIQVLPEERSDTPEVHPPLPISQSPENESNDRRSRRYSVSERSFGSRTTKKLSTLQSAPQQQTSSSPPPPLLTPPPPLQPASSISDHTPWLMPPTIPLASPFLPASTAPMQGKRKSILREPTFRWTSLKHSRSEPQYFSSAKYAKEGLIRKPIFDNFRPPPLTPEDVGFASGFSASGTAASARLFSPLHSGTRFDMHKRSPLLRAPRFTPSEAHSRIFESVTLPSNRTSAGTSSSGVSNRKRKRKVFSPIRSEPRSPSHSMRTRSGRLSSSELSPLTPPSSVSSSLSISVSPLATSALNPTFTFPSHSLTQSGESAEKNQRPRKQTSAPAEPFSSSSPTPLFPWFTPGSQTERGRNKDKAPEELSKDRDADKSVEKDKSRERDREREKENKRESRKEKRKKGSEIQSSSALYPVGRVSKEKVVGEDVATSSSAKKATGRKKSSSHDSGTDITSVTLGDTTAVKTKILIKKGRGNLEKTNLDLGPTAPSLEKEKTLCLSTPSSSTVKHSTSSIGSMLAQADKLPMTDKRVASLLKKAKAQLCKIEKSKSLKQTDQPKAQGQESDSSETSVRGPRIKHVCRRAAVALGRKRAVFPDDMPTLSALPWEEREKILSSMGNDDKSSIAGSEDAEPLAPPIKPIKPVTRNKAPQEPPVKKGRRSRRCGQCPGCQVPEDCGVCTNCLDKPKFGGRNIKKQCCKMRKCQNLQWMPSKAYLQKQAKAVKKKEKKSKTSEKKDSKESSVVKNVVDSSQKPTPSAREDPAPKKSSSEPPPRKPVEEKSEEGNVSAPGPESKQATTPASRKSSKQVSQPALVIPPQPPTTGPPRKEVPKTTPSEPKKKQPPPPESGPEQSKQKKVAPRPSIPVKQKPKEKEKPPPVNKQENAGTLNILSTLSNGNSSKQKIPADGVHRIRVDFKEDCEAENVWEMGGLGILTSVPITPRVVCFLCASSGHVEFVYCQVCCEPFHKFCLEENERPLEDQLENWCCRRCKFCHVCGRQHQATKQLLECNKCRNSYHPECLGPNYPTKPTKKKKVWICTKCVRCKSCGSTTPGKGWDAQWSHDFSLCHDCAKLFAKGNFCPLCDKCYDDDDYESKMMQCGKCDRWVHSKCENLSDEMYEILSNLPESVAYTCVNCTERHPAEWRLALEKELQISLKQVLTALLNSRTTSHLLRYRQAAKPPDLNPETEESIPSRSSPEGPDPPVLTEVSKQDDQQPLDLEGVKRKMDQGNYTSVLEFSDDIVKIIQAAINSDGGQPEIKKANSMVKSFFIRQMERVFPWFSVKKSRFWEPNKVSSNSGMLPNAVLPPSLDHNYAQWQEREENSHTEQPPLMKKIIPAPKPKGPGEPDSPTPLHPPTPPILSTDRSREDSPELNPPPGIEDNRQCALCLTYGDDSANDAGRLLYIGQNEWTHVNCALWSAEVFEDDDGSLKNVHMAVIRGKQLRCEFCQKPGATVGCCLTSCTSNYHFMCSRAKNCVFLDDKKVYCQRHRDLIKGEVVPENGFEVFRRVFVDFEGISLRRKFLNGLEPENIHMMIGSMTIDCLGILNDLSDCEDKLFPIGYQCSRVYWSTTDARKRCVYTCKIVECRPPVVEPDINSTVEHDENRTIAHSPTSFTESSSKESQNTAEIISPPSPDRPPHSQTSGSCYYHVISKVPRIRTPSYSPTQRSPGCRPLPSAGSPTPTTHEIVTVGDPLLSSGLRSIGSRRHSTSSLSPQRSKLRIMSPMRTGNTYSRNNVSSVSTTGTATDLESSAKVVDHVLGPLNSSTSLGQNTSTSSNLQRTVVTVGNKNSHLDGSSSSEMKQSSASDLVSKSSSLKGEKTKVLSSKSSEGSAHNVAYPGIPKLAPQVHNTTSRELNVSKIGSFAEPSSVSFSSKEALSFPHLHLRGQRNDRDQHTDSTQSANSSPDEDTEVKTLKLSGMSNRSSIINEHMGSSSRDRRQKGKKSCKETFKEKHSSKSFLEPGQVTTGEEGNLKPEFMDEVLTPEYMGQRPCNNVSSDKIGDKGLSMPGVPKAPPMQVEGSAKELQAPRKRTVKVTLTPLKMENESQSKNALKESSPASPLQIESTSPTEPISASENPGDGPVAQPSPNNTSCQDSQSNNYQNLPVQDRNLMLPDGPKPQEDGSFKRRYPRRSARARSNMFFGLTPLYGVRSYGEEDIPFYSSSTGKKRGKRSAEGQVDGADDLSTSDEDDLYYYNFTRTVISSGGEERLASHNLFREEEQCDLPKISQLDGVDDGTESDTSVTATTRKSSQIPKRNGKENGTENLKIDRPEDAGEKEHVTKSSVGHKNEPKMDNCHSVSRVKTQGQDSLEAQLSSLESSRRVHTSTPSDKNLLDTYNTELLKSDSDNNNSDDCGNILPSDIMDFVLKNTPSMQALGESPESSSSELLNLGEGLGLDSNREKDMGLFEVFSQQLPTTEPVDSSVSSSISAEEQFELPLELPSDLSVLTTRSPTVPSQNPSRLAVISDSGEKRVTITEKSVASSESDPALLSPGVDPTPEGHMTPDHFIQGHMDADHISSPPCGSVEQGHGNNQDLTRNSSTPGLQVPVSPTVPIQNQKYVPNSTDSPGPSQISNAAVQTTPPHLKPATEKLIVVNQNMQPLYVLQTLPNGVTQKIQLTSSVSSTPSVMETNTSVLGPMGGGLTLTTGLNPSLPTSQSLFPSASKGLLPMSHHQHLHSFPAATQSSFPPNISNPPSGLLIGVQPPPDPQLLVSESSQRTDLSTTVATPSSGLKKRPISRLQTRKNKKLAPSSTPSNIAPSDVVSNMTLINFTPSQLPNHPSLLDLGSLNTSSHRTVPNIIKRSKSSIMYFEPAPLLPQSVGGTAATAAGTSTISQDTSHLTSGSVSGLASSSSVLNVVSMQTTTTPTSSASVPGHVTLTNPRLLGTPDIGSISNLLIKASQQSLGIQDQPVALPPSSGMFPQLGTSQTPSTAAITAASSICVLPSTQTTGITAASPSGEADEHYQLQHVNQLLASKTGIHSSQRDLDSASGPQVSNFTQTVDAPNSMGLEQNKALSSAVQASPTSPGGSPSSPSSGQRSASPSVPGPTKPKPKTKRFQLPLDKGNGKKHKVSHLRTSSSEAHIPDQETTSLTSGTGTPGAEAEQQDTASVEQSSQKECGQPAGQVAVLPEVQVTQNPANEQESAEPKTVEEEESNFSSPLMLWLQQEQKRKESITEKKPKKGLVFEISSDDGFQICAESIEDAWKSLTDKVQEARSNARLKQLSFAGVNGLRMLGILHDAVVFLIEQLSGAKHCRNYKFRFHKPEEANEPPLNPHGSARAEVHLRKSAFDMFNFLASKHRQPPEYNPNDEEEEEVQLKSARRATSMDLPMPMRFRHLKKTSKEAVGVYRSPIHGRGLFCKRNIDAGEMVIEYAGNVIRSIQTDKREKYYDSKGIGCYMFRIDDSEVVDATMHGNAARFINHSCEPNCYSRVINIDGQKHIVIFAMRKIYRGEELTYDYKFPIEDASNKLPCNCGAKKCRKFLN
UniProt Q9UBL3: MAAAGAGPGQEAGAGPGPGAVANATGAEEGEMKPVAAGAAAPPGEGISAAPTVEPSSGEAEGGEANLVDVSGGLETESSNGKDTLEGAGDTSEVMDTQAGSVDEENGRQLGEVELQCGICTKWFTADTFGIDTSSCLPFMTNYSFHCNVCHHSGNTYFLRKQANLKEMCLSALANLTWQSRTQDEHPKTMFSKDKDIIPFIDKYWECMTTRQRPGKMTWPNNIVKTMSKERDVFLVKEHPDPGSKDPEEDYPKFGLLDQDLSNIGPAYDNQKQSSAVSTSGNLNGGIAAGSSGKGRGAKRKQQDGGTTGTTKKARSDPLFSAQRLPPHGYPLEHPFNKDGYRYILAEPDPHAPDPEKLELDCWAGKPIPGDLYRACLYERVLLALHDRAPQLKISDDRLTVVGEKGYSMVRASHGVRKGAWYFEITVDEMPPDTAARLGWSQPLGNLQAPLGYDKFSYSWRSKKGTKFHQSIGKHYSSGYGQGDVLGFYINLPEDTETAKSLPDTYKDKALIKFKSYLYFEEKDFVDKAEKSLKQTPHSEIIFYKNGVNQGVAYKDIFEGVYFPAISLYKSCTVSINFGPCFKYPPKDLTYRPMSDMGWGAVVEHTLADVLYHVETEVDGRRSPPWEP

Measured: binding

B1: myc-tagged CAPERα RRM3 domain (protein, UniProt Q14498 445-508, looked up, not shown: small tags and cut ends)
chain: EIKDDVIEECNKHGGVIHIYVDKNSAQGNVYVKCPSIAAAIAAVNALHGRWFAGKMITAAYVPL
binds: [1] | [2] | [3] | [4] | [5] | [6]

B2: purified GST-fusion RRM3 domain of CAPERα (protein, UniProt Q14498 445-508, looked up, not shown: a dimerising Fc or GST)
chain: B1 chain
binds: [7] | [8] | [9] | [10] | [11] | [12]

Reference: patent US20220265769A1, “COMPOSITIONS AND METHODS OF TREATMENT FOR BREAST CANCER INVOLVING A NOVEL CAPER?-MLL1 COMPLEX” (Geisinger Health, priority 2019, published 2022)
